Reference: patent US6596497B1, “Screening of antiviral compounds targeted to the HIV-1 gp41 core structure” (New York Blood Center, Inc., priority 1999, dated 2003)
For at least one compound, name, drawing or mass did not settle the structure.

Biological target: T1, N-36/C-34 complex (HIV-1 gp41 core) (Human immunodeficiency virus type 1 group M subtype B, UniProt P04578)
T1 construct: Peptides derived from the NHR and CHR regions of gp41, designated N- and C-peptides; made in house; host or cells: chemical synthesis (solid-phase FMOC)
Format: binding
Conditions: no concentration stated
Method: For detection of peptide complexes, a direct and a sandwich ELISA were used. In the direct ELISA, the N- and C-peptides were mixed at equimolar concentration in PBS and diluted in coating buffer. Then, the peptide complexes were directly coated onto the wells of microplate. In the sandwich ELISA, the plate was coated with IgG (10 μg/ml) purified from rabbit antisera directed against N36(L6)C34, followed by the addition of the peptide complexes formed by mixing N- and C-peptides in PBS in equimolar concentrations. To screen for antiviral agents, compounds were pre-incubated with N-peptides at 37° C. for 30 minutes before mixing with the C-peptides. The binding of the peptide complexes to the antibodies was then detected as described above.
The percentage of inhibition by the compounds of the binding of NC-1 to the peptide complexes was calculated as described in Jiang, S., K. Lin, and A. R. Neurath, 1991, “Enhancement of human immunodeficiency virus type-1 (HIV-1) infection by antisera to peptides from the envelope glycoproteins gp120/gp41”, J. Exp. Med., 174, 1557-1563.
A sandwich ELISA was established to screen for compounds that interfere with the formation of the N-36/C-34 complex. […] Absorbance at 450 nm (A450) was read using an ELISA reader (Dynatech Laboratories, Inc., Chantilly, Va.). […]

O=C(O)C1=CC(=C(c2ccc(O)c(C(=O)O)c2)c2ccc(O)c(C(=O)O)c2)C=CC1=O [ATA, aurintricarboxylic acid, reference compound]
Inhibitory activity on complex formation by N-36 and C-34 (in words): not blocking the complex formation
